These results are taken from PubChem BioAssay AID248 (DTP/NCI, 2004).

The subject of the test is L1210 leukemia ip in BDF1 mice, survival T/C. The experiment in a line: NCI In Vivo Anticancer Drug Screen. Data for tumor model L1210 Leukemia (intraperitoneal) in B6D2F1 (BDF1) mice. Conditions: higher T/C = longer survival.
Where [1] appears, read: T/C endpoint: mean survival time, dose: 400.0 mg/kg/injection, schedule: Q01DX009 (ip), vehicle: saline.
Setting [2] is: T/C endpoint: mean survival time, dose: 200.0 mg/kg/injection, schedule: Q01DX009 (ip), vehicle: saline.
Where [3] appears, read: T/C endpoint: mean survival time, dose: 300.0 mg/kg/injection, schedule: Q01DX009 (ip), vehicle: saline.
Setting [4] is: T/C endpoint: mean survival time, dose: 400.0 mg/kg/injection, schedule: Q04DX003 (ip), vehicle: saline.
The mark [5] stands for this setting: T/C endpoint: mean survival time, dose: 200.0 mg/kg/injection, schedule: Q04DX002 (ip), vehicle: Klucel (hydroxypropylcellulose) (HPC).
[6] abbreviates: T/C endpoint: mean survival time, dose: 300.0 mg/kg/injection, schedule: Q01DX001 (ip), vehicle: saline.
[7] abbreviates: T/C endpoint: mean survival time, dose: 75.0 mg/kg/injection, schedule: Q01DX001 (ip), vehicle: saline.
The mark [8] stands for this setting: T/C endpoint: mean survival time, dose: 100.0 mg/kg/injection, schedule: Q01DX001 (ip), vehicle: saline.
The mark [9] stands for this setting: T/C endpoint: mean survival time, dose: 200.0 mg/kg/injection, schedule: Q01DX001 (ip), vehicle: saline.
Where [10] appears, read: T/C endpoint: mean survival time, dose: 400.0 mg/kg/injection, schedule: Q01DX001 (ip), vehicle: saline.
Setting [11] is: T/C endpoint: mean survival time, dose: 400.0 mg/kg/injection, schedule: Q04DX002 (ip), vehicle: Klucel (hydroxypropylcellulose) (HPC).
Where [12] appears, read: T/C endpoint: mean survival time, dose: 8.0 mg/kg/injection, schedule: Q01DX001 (ip), vehicle: carboxymethylcellulose (CMC).

The list is a part of this screen's results and no random one: it is rich in T/C values a quarter to a half above the control, in often repeated tests (any T/C) and in doses without a T/C. Other doses and runs of a compound stand elsewhere. T/C: endpoint of the treated group in % of that of the vehicle group. Some entries give survivors of the animals treated and no T/C: the source holds a T/C of zero for them, seemingly a mark for toxic or unscored doses. Some doses without a T/C left all or most animals alive at the check, yet need not have been tolerated: the source hardly ever lists a survival T/C far under the control, and the zero likely stands for such cases as well. Counts of survivors are from the toxicity check (mostly the fifth day) where no day follows; animals may have died later. Schedules are NCI's codes, taken here to give the interval after Q, in days (D) or hours (H), and the number of doses after X. Some schedule codes hold Z or #, which are not explained here. Some doses were run more than once; the results are listed from low to high. For survival time, this PubChem deposit counts one and a half times the control or more as active, and values a quarter to a half above the control carry no call in these data; other NCI protocols may use other cut-offs. Some T/C values are followed by the survivors on the day toxicity was checked, most often the fifth; without a count, all were alive then.

Regarding `O=C(Nc1cccc(C2=NCCN2)c1)Nc1ccc(NC(=O)Nc2cccc(C3=NCCN3)c2)c(Cl)c1`, the T/C by setting is: (T/C endpoint: mean survival time, dose: 2.0 mg/kg/injection, schedule: Q01DX Z (ip), vehicle: carboxymethylcellulose (CMC)) 135 % of control; (T/C endpoint: mean survival time, dose: 4.0 mg/kg/injection, schedule: Q01DX Z (ip), vehicle: carboxymethylcellulose (CMC)) 141 % of control; (T/C endpoint: mean survival time, dose: 8.0 mg/kg/injection, schedule: Q01DX Z (ip), vehicle: carboxymethylcellulose (CMC)) 148 % of control; (T/C endpoint: mean survival time, dose: 62.0 mg/kg/injection, schedule: Q01DX Z (ip), vehicle: water) 130 % of control. Moreover, the survivor count reads like this: (T/C endpoint: mean survival time, dose: 125.0 mg/kg/injection, schedule: Q01DX Z (ip), vehicle: water) 4 of 6; (T/C endpoint: mean survival time, dose: 250.0 mg/kg/injection, schedule: Q01DX Z (ip), vehicle: water) 0 of 6; (T/C endpoint: mean survival time, dose: 500.0 mg/kg/injection, schedule: Q01DX Z (ip), vehicle: water) 0 of 6.
Consider `N=C(N)SCCN`, for which the survivor count runs as follows: under setting [1], 0 of 6; (T/C endpoint: mean survival time, dose: 800.0 mg/kg/injection, schedule: Q01DX001 (ip), vehicle: saline) 3 of 6.
As to `O=C(CCl)NCc1cnccn1`, the survivor count under setting [2] is recorded as 1 of 6, the survivor count under setting [3] was 0 of 6 and the survivor count under setting [4] is 0 of 6.
For `O=c1n[n+]([O-])ccn1C1OC(CO)C(O)C1O` (stereo not drawn), the T/C runs as follows: under setting [3], 142 % of control; (T/C endpoint: mean survival time, dose: 450.0 mg/kg/injection, schedule: Q01DX009 (ip), vehicle: saline) 128 % of control. The survivor count is 10 of 10 (T/C endpoint: mean survival time, dose: 600.0 mg/kg/injection, schedule: Q01DX009 (ip), vehicle: saline) and 7 of 10 (T/C endpoint: median survival time, dose: 500.0 mg/kg/injection, schedule: Q01DX009 (ip), vehicle: saline).
Regarding `CC(=O)OC1CCC2(C)C(CCC3C2CC(OC(C)=O)C2(C)C3CCC2C2(C)SCCS2)C1` (stereo not drawn), the survivor count under setting [5] is 3 of 3.
For `COc1ccc(OC)c2c(C(O)CNC34CC5CC(CC(C5)C3)C4)cc(-c3ccc(Cl)cc3)nc12` (stereo not drawn), the survivor count is 6 of 6 (T/C endpoint: mean survival time, dose: 100.0 mg/kg/injection, schedule: Q01DX009 (ip), vehicle: other); 6 of 6 (T/C endpoint: mean survival time, dose: 200.0 mg/kg/injection, schedule: Q01DX009 (ip), vehicle: other); 3 of 6 (T/C endpoint: mean survival time, dose: 400.0 mg/kg/injection, schedule: Q01DX009 (ip), vehicle: other).
On to `Brc1ccc2c(c1)/C(=C/c1ccccc1)c1ccccc1-2`, for which the survivor count (T/C endpoint: mean survival time, dose: 100.0 mg/kg/injection, schedule: Q04DX002 (ip), vehicle: DMSO) was 3 of 3.
For `Nc1nc2nc(C(=O)O)cnc2c(=O)[nH]1`, the survivor count by setting is: (T/C endpoint: mean survival time, dose: 50.0 mg/kg/injection, schedule: Q04DX003 (ip), vehicle: saline) 2 of 6; (T/C endpoint: mean survival time, dose: 100.0 mg/kg/injection, schedule: Q04DX003 (ip), vehicle: saline) 3 of 6; (T/C endpoint: mean survival time, dose: 200.0 mg/kg/injection, schedule: Q04DX003 (ip), vehicle: saline) 1 of 6; under setting [4], 0 of 6.
Take `Cc1ccc([P+](Cc2ccccc2)(c2ccc(C)cc2)c2ccc(C)cc2)cc1`: under setting [6], the survivor count was 1 of 6.
Take `O=C(Nc1ccc(F)cc1)Nc1cccc(O)c1`: the survivor count (T/C endpoint: mean survival time, dose: 400.0 mg/kg/injection, schedule: Q04DX002 (ip), vehicle: carboxymethylcellulose (CMC)) is 6 of 6.
As to `N#CC(=C=[N-])[n+]1ccccc1`, the survivor count is given as 3 of 6 (T/C endpoint: mean survival time, dose: 25.0 mg/kg/injection, schedule: Q01DX009 (ip), vehicle: saline); 2 of 6 under setting [7]; 0 of 6 under setting [8]; 0 of 6 under setting [9]; 0 of 6 under setting [10].
For `S=C([S][Sb]([c]1ccccc1)[c]1ccccc1)N(c1ccccc1)c1ccccc1`, the survivor count (T/C endpoint: mean survival time, dose: 80.0 mg/kg/injection, schedule: Q01DX001 (ip), vehicle: other) was 0 of 6; the survivor count (T/C endpoint: mean survival time, dose: 100.0 mg/kg/injection, schedule: Q01DX001 (ip), vehicle: other) is given as 0 of 4; the survivor count (T/C endpoint: mean survival time, dose: 200.0 mg/kg/injection, schedule: Q01DX001 (ip), vehicle: other) is 1 of 4; the survivor count (T/C endpoint: mean survival time, dose: 400.0 mg/kg/injection, schedule: Q01DX001 (ip), vehicle: other) is recorded as 0 of 4.
Take `Cc1cccc(C)c1NC(=O)NCc1ccco1`: the survivor count is, setting by setting: under setting [5], 2 of 3; under setting [11], 0 of 3.
For the molecule `O=C(O)/C(=C\c1ccc(Cl)cc1)c1ccc(Cl)cc1`, the survivor count (T/C endpoint: mean survival time, dose: 400.0 mg/kg/injection, schedule: Q01DX009 (ip), vehicle: Klucel (hydroxypropylcellulose) (HPC)) is 6 of 6.
For the molecule `O=C1C(O)=C(c2ccc(O)cc2)C(=O)C(O)=C1c1ccc(O)cc1`, the survivor count (T/C endpoint: mean survival time, dose: 100.0 mg/kg/injection, schedule: Q04DX002 (ip), vehicle: Klucel (hydroxypropylcellulose) (HPC)) is 3 of 3; the survivor count under setting [5] is 1 of 3; the survivor count under setting [11] is listed as 0 of 3.
Consider `N=C(N)SCCCN`, for which the survivor count is, setting by setting: under setting [2], 3 of 6; under setting [1], 0 of 6; under setting [4], 2 of 6.
Take `CN(C)C/C(=N\O)c1ccc(Cl)cc1`: the survivor count under setting [10] is 0 of 6.
Take `COc1cc([C@@H]2c3cc4c(c(O)c3C[C@H]3COC(=O)[C@@H]32)OCO4)cc(OC)c1O`: the survivor count by setting is: (T/C endpoint: mean survival time, dose: 1.0 mg/kg/injection, schedule: Q01DX Z (ip), vehicle: saline) 4 of 7; (T/C endpoint: mean survival time, dose: 3.6 mg/kg/injection, schedule: Q01DX001 (ip), vehicle: carboxymethylcellulose (CMC)) 0 of 4; (T/C endpoint: mean survival time, dose: 5.3 mg/kg/injection, schedule: Q01DX001 (ip), vehicle: carboxymethylcellulose (CMC)) 1 of 4; under setting [12], 0 of 4; (T/C endpoint: mean survival time, dose: 12.0 mg/kg/injection, schedule: Q01DX001 (ip), vehicle: carboxymethylcellulose (CMC)) 1 of 4 and 4 of 4; (T/C endpoint: median survival time, dose: 1.0 mg/kg/injection, schedule: Q01DX009 (ip), vehicle: Klucel (hydroxypropylcellulose) (HPC)) 4 of 8. The T/C under setting [12] is 136 % of control [3 of 4 alive].
For `CCOC(CN)C(Cl)(Cl)Cl` (stereo not drawn), under setting [1], the survivor count is given as 6 of 6.
Turning to `CCCCCCCCCCCC(=O)Nc1cc(C)ccc1N=Nc1ccc(C)cc1`, the survivor count is 6 of 6 (T/C endpoint: mean survival time, dose: 100.0 mg/kg/injection, schedule: Q01DX009 (ip), vehicle: Klucel (hydroxypropylcellulose) (HPC)) and 6 of 6 (T/C endpoint: mean survival time, dose: 200.0 mg/kg/injection, schedule: Q01DX009 (ip), vehicle: Klucel (hydroxypropylcellulose) (HPC)).
On to `OCCN1CCN(C(=S)[S-])CC1.OCCN1CCN(C(=S)[S-])CC1.[Zn]`, for which the survivor count was 0 of 6 (T/C endpoint: mean survival time, dose: 40.0 mg/kg/injection, schedule: Q04DX003 (ip), vehicle: saline); 0 of 6 under setting [7]; 0 of 6 (T/C endpoint: mean survival time, dose: 150.0 mg/kg/injection, schedule: Q01DX001 (ip), vehicle: saline); 0 of 6 under setting [6].
For the molecule `O=C(O)c1cc2ccc3ccccc3c2s1`, under setting [10], the survivor count is recorded as 4 of 6.
Turning to `N#CCc1[nH]cnc1C#N`, under “T/C endpoint: mean survival time, dose: 200.0 mg/kg/injection, schedule: Q04DX003 (ip), vehicle: water”, the T/C was 125 % of control.
Consider `Cc1cc(C)c[n+](Cc2ccccc2Cl)c1`, for which the survivor count is listed as 0 of 6 (T/C endpoint: mean survival time, dose: 50.0 mg/kg/injection, schedule: Q01DX001 (ip), vehicle: saline); 1 of 6 under setting [8]; 0 of 6 under setting [9]; 0 of 6 under setting [10].
For the molecule `CCOc1c(Cl)cc(Cl)cc1C(c1ccc(Cl)cc1S(=O)(=O)O)c1cc(Cl)cc(Cl)c1OCC`, the survivor count was 4 of 6 (T/C endpoint: mean survival time, dose: 200.0 mg/kg/injection, schedule: Q04DX003 (ip), vehicle: saline with Tween-80) and 5 of 6 (T/C endpoint: mean survival time, dose: 400.0 mg/kg/injection, schedule: Q04DX003 (ip), vehicle: saline with Tween-80).
